Laboratory results: US20250090552A1, “MESALAMINE PHARMACEUTICAL FORMULATIONS AND METHODS OF USE THEREOF” (Intact Therapeutics, Inc., priority 2022, published 2025)
Some results were stated once for a whole list of compounds, not compound by compound.

Test: Excipient compatibility study (gelation temperature, constant 15% poloxamer 407)
Assay type: physicochemical
Details: change from initial
Experimental: Excipients were studied for compatibility. Constant—15% poloxamer 407 was used. The compatibility study was carried out with the following excipients: Mesalamine—6.67%; Transcutol—10%; EDTA—0.1%; Polocarbophil—0.25%+Tris—0.15%; TPGS—0.2%; NaCl—0.5%; Sodium metabisulfite—0.2%; PVA 30 CPS—1%; Kollidon 30-1%. The following lipids were investigated: DSPC—0.5%+DPCC—0.5%; Phospholipon 90G—1%; Lipoid S 100-1%; Phospholipon 90H—1%; Lecithin—1%. The following combination of poloxamer grades was also studied Poloxamer 188-1.5, 2.5 and 5%. No or marginal impact (1-2° C. from initial) was found for the following excipients: Transcutol, EDTA, TPGS, NaCl, and PVA. Moderate impact (2-5° C. from initial) was found with Mesalamine. […] No or marginal impact (1-2° C. from initial) was found in combinations with DSPC+DPCC, Phospholipon 90 G, and Lipoid S 100. […] All poloxamer combinations were stable for 28 days.

SMILES | impact on gelation temperature
Nc1ccc(O)c(C(=O)O)c1 [Mesalamine, 5-aminosalicylic acid] | Moderate impact (Moderate impact (2-5 °C from initial))
CCOCCOCCO [Transcutol, 2-(2-Ethoxyethoxy)ethan-1-ol] | No or marginal impact (No or marginal impact (1-2 °C from initial))
